Results taken from PMC7819943, “Rice protein-binding microarrays: a tool to detect cis-acting elements near promoter regions in rice”.
The list shows a part of the results.

Molecular target: T1, OsSMF1 (Oryza sativa, UniProt Q6ZLB0 1-436)
T1 sequence: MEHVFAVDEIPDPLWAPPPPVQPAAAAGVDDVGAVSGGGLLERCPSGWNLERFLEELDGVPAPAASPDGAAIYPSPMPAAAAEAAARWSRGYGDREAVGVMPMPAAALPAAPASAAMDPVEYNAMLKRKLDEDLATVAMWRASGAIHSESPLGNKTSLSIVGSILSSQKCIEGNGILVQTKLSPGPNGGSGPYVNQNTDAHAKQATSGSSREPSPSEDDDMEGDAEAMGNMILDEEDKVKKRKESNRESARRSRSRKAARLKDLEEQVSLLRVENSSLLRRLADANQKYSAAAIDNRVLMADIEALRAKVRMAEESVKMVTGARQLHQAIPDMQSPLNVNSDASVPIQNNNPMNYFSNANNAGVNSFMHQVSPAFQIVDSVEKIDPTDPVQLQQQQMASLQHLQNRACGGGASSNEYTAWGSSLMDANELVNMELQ
Experiment: protein-binding microarray (RPBM); PBS, 2% BSA, 51.3 ng/ul salmon testes DNA, 50 uM zinc acetate, 200 nM TF, 25 C, 1 h; high values mean tight binding
Conditions: protein: recombinant; tags: N-terminal polyhistidine and DsRed monomer fusion (pET32a); chain copies: 2; label: CyDye5-dUTP incorporated in the synthesized complementary strand; 3' TTTTT single-stranded linker to array surface; dsDNA, one strand shown
Outline: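 In PBS with 2% BSA, salmon testes DNA and 50 µM zinc acetate, 200 nM protein was incubated on a custom Agilent array at 25 °C for 1 h and then washed off. The array had been made double-stranded by primer extension with Cy5-dUTP and blocked with 2% BSA. The proteins were transcription factors fused N-terminally to polyhistidine and DsRed, expressed in E. coli BL21-CodonPlus and purified on Ni–NTA. The binding signal is per-feature fluorescence intensity (arbitrary units) from an Axon 4000B scanner.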

Row | Sequence | binding signal
1 | CCTGTTGATTGGATATCTGGAACCTGAAATCCTGAATACGCGGAGTCACCTAGTGCAG | 21300 fluorescence intensity (a.u.)
2 | GGTGATCACTAGGCTGTCAATGGGGTGGTAGGGTGGCATGCGGAGTCACCTAGTGCAG | 3250 fluorescence intensity (a.u.)
3 | CACTACTTGCTGTCTTGCTGCCGCCACGCTGCTCCTCCCCCGGAGTCACCTAGTGCAG | 22900 fluorescence intensity (a.u.)
4 | GATATGTGGGCCCACGTGGAATAAAATAAATGTGTGATGCCGGAGTCACCTAGTGCAG | 4700 fluorescence intensity (a.u.)
5 | ATAACAGAATGGATGACGTAAGCTGCACACGCGGCACTAGCGGAGTCACCTAGTGCAG | 8280 fluorescence intensity (a.u.)
6 | ACGCGCGTCGCACGCCACGCGGCACCATTTCGCTTCGCCTCGGAGTCACCTAGTGCAG | 9140 fluorescence intensity (a.u.)
7 | CTGGGGAGCGGGTGGGCTGTCTGCATTGTTTAGCCCATGACGGAGTCACCTAGTGCAG | 3510 fluorescence intensity (a.u.)
8 | TCTCACGTACACCTCCGGTTTCTGATTCTTGCTTCGTGTGCGGAGTCACCTAGTGCAG | 3280 fluorescence intensity (a.u.)
9 | TCGATCGTTGGTTAGCGCGTACGTACGTCTTGGTCATTTGCGGAGTCACCTAGTGCAG | 3670 fluorescence intensity (a.u.)
10 | GCCACGTAGGTGCCATGTGGCACCACGTCAGCAAAATTGCCGGAGTCACCTAGTGCAG | 49100 fluorescence intensity (a.u.)
11 | AATTGCGCTCTCTGGATCTTCTTCTCCGTCTCCTCCCCGGCGGAGTCACCTAGTGCAG | 3160 fluorescence intensity (a.u.)
12 | CACAAACCAATGGGCATCGCATTGTGCGCGTCATTGTACACGGAGTCACCTAGTGCAG | 3500 fluorescence intensity (a.u.)
13 | TCTCCCTGAGTCCAAGCCGCTCCTCCCTGACGCCTATGCCCGGAGTCACCTAGTGCAG | 3510 fluorescence intensity (a.u.)
14 | TCTCTCTCTCTCTCTCTCTCTTCTGACTTAGCTTTGTCAACGGAGTCACCTAGTGCAG | 3700 fluorescence intensity (a.u.)
15 | CTCGTCCCTCGTCAGCGTCCTCCCCGCCTTCGTCTCGCCGCGGAGTCACCTAGTGCAG | 8650 fluorescence intensity (a.u.)
16 | TTTGTAGTTAAATTTATACGCTAGAAATGCCTTATATTTGCGGAGTCACCTAGTGCAG | 3290 fluorescence intensity (a.u.)
17 | CACAGAGTGAGGGATTAAGGAAGAAGAAGAGGTTGATTGACGGAGTCACCTAGTGCAG | 31900 fluorescence intensity (a.u.)
18 | GGAGCCGAACGAGCCTCGTCACGCGGTTCTCCAGCGCAGCCGGAGTCACCTAGTGCAG | 6090 fluorescence intensity (a.u.)
19 | CGGTCTCTTTCCACCACGGTGCCCGTGTCCGTCCGAGCGCCGGAGTCACCTAGTGCAG | 3160 fluorescence intensity (a.u.)
20 | AATTGATTATCCGAGAAGCAATGAGCAGAACGTTCATGTACGGAGTCACCTAGTGCAG | 11000 fluorescence intensity (a.u.)
21 | ACGTGTCGAGCACAGGAACACGTGTCACTTCAGTTCTTCCCGGAGTCACCTAGTGCAG | 19500 fluorescence intensity (a.u.)

Quoted from the listing.
Value of TCTCTCTCTCTCTCTCTCTCTTCTGACTTAGCTTTGTCAACGGAGTCACCTAGTGCAG under binding signal: 3700 fluorescence intensity (a.u.)
Value of TTTGTAGTTAAATTTATACGCTAGAAATGCCTTATATTTGCGGAGTCACCTAGTGCAG under binding signal: 3290 fluorescence intensity (a.u.)
Value of GGTGATCACTAGGCTGTCAATGGGGTGGTAGGGTGGCATGCGGAGTCACCTAGTGCAG under binding signal: 3250 fluorescence intensity (a.u.)

Further records.

Row | Sequence | binding signal
22 | TTACAAGGTTATAACATAGTTAATTATTTAGGTATACAATCGGAGTCACCTAGTGCAG | 26900 fluorescence intensity (a.u.)
23 | GCGAGCGGTATTGCTGATGTGGCATCCGACGTAGAAGGTTCGGAGTCACCTAGTGCAG | 15500 fluorescence intensity (a.u.)
24 | GCTACAACTAGCACTCCTAACCTGACACGATAGTTTTGGGCGGAGTCACCTAGTGCAG | 3280 fluorescence intensity (a.u.)
25 | CATATCCTATCATTAGGACATGACTCGGTCTTGTGTCGCTCGGAGTCACCTAGTGCAG | 3860 fluorescence intensity (a.u.)
26 | CTCACAGTGGATAGTAACAATTGATCCCGGTATCTATTTGCGGAGTCACCTAGTGCAG | 5110 fluorescence intensity (a.u.)
27 | GGGTCTGTTTGGTTCACAGCCCAAACCAGCCATCAAGTTGCGGAGTCACCTAGTGCAG | 3820 fluorescence intensity (a.u.)
28 | CTTAATCACAATGTCAATCAATGTCCTGTGGCAAAGTGCCCGGAGTCACCTAGTGCAG | 3270 fluorescence intensity (a.u.)
29 | ACTCTTCTGTTTTCCTGCGCTGTGTAATGTCAAAATTCTCCGGAGTCACCTAGTGCAG | 4080 fluorescence intensity (a.u.)
30 | GGTGGTGCTGGACCTCGAGTTCGGAGATCTCATGCGGCCCCGGAGTCACCTAGTGCAG | 27500 fluorescence intensity (a.u.)
31 | TGCATCACTCTATTGGTTGCAATGTGTCCTTTATACCAATCGGAGTCACCTAGTGCAG | 29300 fluorescence intensity (a.u.)
32 | TGCCTGCGTAAAATAATACACGGCGTGGCGGCGCGCCGCGCGGAGTCACCTAGTGCAG | 3280 fluorescence intensity (a.u.)
33 | CTCCTTGGCCCGTTTGGTCTCTGTGTGGGTTGGTAAAGACCGGAGTCACCTAGTGCAG | 3330 fluorescence intensity (a.u.)
34 | AATCGAACAGGCTGAGGTATTCCACGATCGCACACTTACCCGGAGTCACCTAGTGCAG | 3430 fluorescence intensity (a.u.)
35 | TTCTAGGTCATGAAAGAATCCAACGTGGCCGTATTATCACCGGAGTCACCTAGTGCAG | 7840 fluorescence intensity (a.u.)
36 | TCACTCCCCAAGAAAGCACAAAGCCACATCAACCTCACCTCGGAGTCACCTAGTGCAG | 3300 fluorescence intensity (a.u.)
37 | GCATTGAGGCCCATCTAAAAGAATATGTGGCCTTGTTTGGCGGAGTCACCTAGTGCAG | 3230 fluorescence intensity (a.u.)
38 | GATGCTTTCTTAAGATTTAGATATTTCTAGTCTTATGCTTCGGAGTCACCTAGTGCAG | 3470 fluorescence intensity (a.u.)
39 | GGCAGATATTAAGAACGCAATGACACGGCTATTTATAGCACGGAGTCACCTAGTGCAG | 3560 fluorescence intensity (a.u.)
40 | TCCCAAACCCCGCGCCGCCTCTTACCGCTTCGCGTCAGCTCGGAGTCACCTAGTGCAG | 63900 fluorescence intensity (a.u.)
41 | AGCTCGTGACGTTAATCTCCGTATAACCAAGCCATGTTGTCGGAGTCACCTAGTGCAG | 6620 fluorescence intensity (a.u.)
42 | GCGCGCGCCATCTCGCTGATTCGACCGCGAAATTTTCAGTCGGAGTCACCTAGTGCAG | 3740 fluorescence intensity (a.u.)
